# Data as given in paper PMC7819943, “Rice protein-binding microarrays: a tool to detect cis-acting elements near promoter regions in rice”.
# Chains of the proteins cited; added tags and fusions are not shown.
# UniProt Q0JBA9, entry or part of it: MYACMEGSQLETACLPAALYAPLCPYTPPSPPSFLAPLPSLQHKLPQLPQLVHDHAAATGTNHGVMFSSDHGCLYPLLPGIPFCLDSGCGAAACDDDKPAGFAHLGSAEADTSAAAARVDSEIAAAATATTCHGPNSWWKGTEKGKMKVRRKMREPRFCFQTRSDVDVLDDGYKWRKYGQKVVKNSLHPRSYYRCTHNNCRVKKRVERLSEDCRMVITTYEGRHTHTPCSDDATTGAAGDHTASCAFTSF
# The list shows a part of the results.
# Target: OsWRKY34 (Oryza sativa, UniProt Q0JBA9 1-250)
# Test: protein-binding microarray (RPBM); PBS, 2% BSA, 51.3 ng/ul salmon testes DNA, 50 uM zinc acetate, 200 nM TF, 25 C, 1 h; high values mean tight binding
# Settings: protein: recombinant; tags: N-terminal polyhistidine and DsRed monomer fusion (pET32a); label: CyDye5-dUTP incorporated in the synthesized complementary strand; 3' TTTTT single-stranded linker to array surface; dsDNA, one strand shown
# Procedure, shortened: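 Ni–NTA purification followed expression in E. coli BL21-CodonPlus of transcription factors fused N-terminally to a polyhistidine tag and DsRed. At 200 nM in PBS with 2% BSA, salmon testes DNA and 50 µM zinc acetate, the protein was incubated for 1 h at 25 °C with a custom Agilent array that had been primer-extended with Cy5-dUTP and blocked with 2% BSA. After washing, the array was read on an Axon 4000B scanner. The binding signal is per-feature fluorescence intensity in arbitrary units.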
row,Sequence,binding signal
1,TTGCATCCTTTTAGTATATTGTGTCCCTTTTGTGTGTTCTCGGAGTCACCTAGTGCAG,10400 fluorescence intensity (a.u.)
2,TACTGTAAATCTTGGAGTTATCTTTCTTGTCACAATATCTCGGAGTCACCTAGTGCAG,8700 fluorescence intensity (a.u.)
3,TTTTTTTATCTCACTTATTTATTCATGTTTACATTTCCAGCGGAGTCACCTAGTGCAG,8620 fluorescence intensity (a.u.)
4,GGTGCGTGTTCGGGATGGGGTTCGGGTTCAATTTCAGGTTCGGAGTCACCTAGTGCAG,16700 fluorescence intensity (a.u.)
5,GGAATGCGTGCCACACTCTTTGCACATTTTGGTCAGCACACGGAGTCACCTAGTGCAG,8030 fluorescence intensity (a.u.)
6,GCGGTGTGCATATCAATGGAGGCCAAAGGATTCAGTCGTCCGGAGTCACCTAGTGCAG,8510 fluorescence intensity (a.u.)
7,GAATATAATGAAATTTCACAGAGGAGGGGCTGGGCTTTATCGGAGTCACCTAGTGCAG,10300 fluorescence intensity (a.u.)
8,TATTTTTTACCATTTCCATTTTTGTTTCGGTCGATTACCACGGAGTCACCTAGTGCAG,10300 fluorescence intensity (a.u.)
9,AGCTTTCCTCGGCTCGTTTCCACCCCTAGCCGTCAGTGTACGGAGTCACCTAGTGCAG,10100 fluorescence intensity (a.u.)
10,CTGGCTCACCATTCCCATTGGATTACCAGATATAGCTTCACGGAGTCACCTAGTGCAG,8680 fluorescence intensity (a.u.)
11,CTGCCGCGTTTTGGAGCCTCATAGGCATGGTTTAATTATTCGGAGTCACCTAGTGCAG,9420 fluorescence intensity (a.u.)
12,CGCAACTCGCGCACAGCCCGCCCGGCCTGTCTAGCGCCTCCGGAGTCACCTAGTGCAG,8060 fluorescence intensity (a.u.)
13,CGCCTCCGTCATCGCGTACGCCTCCACCACCGGCGCCCCGCGGAGTCACCTAGTGCAG,8510 fluorescence intensity (a.u.)
14,CACCGGCTGTTGACTGCTCTTCTGTCTGTACATTAATGGCCGGAGTCACCTAGTGCAG,8720 fluorescence intensity (a.u.)
15,GCATGTGCTTTTGCTGTCTGAATTCAGAATCAGCGTTACCCGGAGTCACCTAGTGCAG,8760 fluorescence intensity (a.u.)
16,TAGTTTCCATATCATAATACTCTTTACTTTCTGCTTGCTTCGGAGTCACCTAGTGCAG,9080 fluorescence intensity (a.u.)
17,AATAAGTCTATTTTGCCTCCATCATATATCGAACCGTGTCCGGAGTCACCTAGTGCAG,8070 fluorescence intensity (a.u.)
18,ACCAGCTGAATATCATATAGTAGTACACACTCATGCATACCGGAGTCACCTAGTGCAG,8300 fluorescence intensity (a.u.)
19,TGACAGCATGAAACTCATCCTCTACTTCCATACCACAAATCGGAGTCACCTAGTGCAG,8130 fluorescence intensity (a.u.)
20,CCAAGGGGTGCTAAATGGGGCTAATTTTGTGTGGGGACCACGGAGTCACCTAGTGCAG,9970 fluorescence intensity (a.u.)
21,CTTCCATCTCCTGCCTGCACCCCTATATATTTCAGTTTCACGGAGTCACCTAGTGCAG,9100 fluorescence intensity (a.u.)

row,Sequence,binding signal
1,GCACGCTCAATTACCATACACATCAGCTAACAAGTAATAACGGAGTCACCTAGTGCAG,8470 fluorescence intensity (a.u.)
2,GACCATCTGTTTTTGTATCCTTTTTTGTCATTGTAATGACCGGAGTCACCTAGTGCAG,13700 fluorescence intensity (a.u.)
3,AAAACCTTTTCATCTTTTCTTACTGGTTTATTTTACCAATCGGAGTCACCTAGTGCAG,8480 fluorescence intensity (a.u.)
4,AATCCACAATACGCGCGGCGGCTTCTTTCCTCTTTCGCTCCGGAGTCACCTAGTGCAG,10300 fluorescence intensity (a.u.)
5,CGGAGGTGGTTGACTGGTTCTCTGCCAGTATGCTGATTTTCGGAGTCACCTAGTGCAG,8740 fluorescence intensity (a.u.)
6,CCACCTCTCGTCCGCCAAACGCGGCCGCCCTCTCCCCACGCGGAGTCACCTAGTGCAG,8740 fluorescence intensity (a.u.)
7,AGGATGTGATTAGTTGGGGATGTTAAGATTAGATTAGATACGGAGTCACCTAGTGCAG,10600 fluorescence intensity (a.u.)
8,ACACCCAACCCGATCCACATCATCCCCAAACCTCCCTTCCCGGAGTCACCTAGTGCAG,8580 fluorescence intensity (a.u.)
9,CCATTGGGTCACCCACGCGTAATATTGCCATCCCTACATTCGGAGTCACCTAGTGCAG,10800 fluorescence intensity (a.u.)
10,AAAAAAGGCTATCTATTTATTTCTTCCATGCTATTATGACCGGAGTCACCTAGTGCAG,8420 fluorescence intensity (a.u.)
11,GCAGCTCTCTTGTGTACCACCTGGATATTTTTCTGGTGCCCGGAGTCACCTAGTGCAG,8550 fluorescence intensity (a.u.)
12,ACTACTAATTAAGTTATTATACCCACCTTGCAATTTATTACGGAGTCACCTAGTGCAG,8910 fluorescence intensity (a.u.)
13,AATTTACAGCTTCATTTTCTGGATTCTCTAATTATATTTTCGGAGTCACCTAGTGCAG,8770 fluorescence intensity (a.u.)
14,GATTGCCAGCCAGCCCAACTCCTTCCTACTCCTGGTACTACGGAGTCACCTAGTGCAG,9630 fluorescence intensity (a.u.)
15,CCCTCTTATTCCTACACTGTAGACGGAGGCCTGTTTTGTCCGGAGTCACCTAGTGCAG,8920 fluorescence intensity (a.u.)
16,GTTCCCAACATCATCTCCCTCGTTTTTCGCGTACACGCTTCGGAGTCACCTAGTGCAG,8140 fluorescence intensity (a.u.)
17,CAGCGGAGAGCGGCGGCGGCGAGTAGGATGGGGTTTGATTCGGAGTCACCTAGTGCAG,8380 fluorescence intensity (a.u.)
18,GGATCATCTATTTTTTTTGTTTTGTTACACTTTGGACTATCGGAGTCACCTAGTGCAG,9290 fluorescence intensity (a.u.)
19,CTCCGCCTCCGCCTCCGCGTGCTCCCGTAACCGCGCCGCCCGGAGTCACCTAGTGCAG,8230 fluorescence intensity (a.u.)
20,GACGGTTGATTTTTTTGGGTATTTTTGTCCTTCTCTTAATCGGAGTCACCTAGTGCAG,9400 fluorescence intensity (a.u.)
21,AAATTGTTATTAAACCGGTAGTTTTGTAGTTCTTAAATCTCGGAGTCACCTAGTGCAG,10500 fluorescence intensity (a.u.)

# Reformatted with tabs: entries from further up.
row	Sequence	binding signal
3	AAAACCTTTTCATCTTTTCTTACTGGTTTATTTTACCAATCGGAGTCACCTAGTGCAG	8480 fluorescence intensity (a.u.)
12	ACTACTAATTAAGTTATTATACCCACCTTGCAATTTATTACGGAGTCACCTAGTGCAG	8910 fluorescence intensity (a.u.)
19	CTCCGCCTCCGCCTCCGCGTGCTCCCGTAACCGCGCCGCCCGGAGTCACCTAGTGCAG	8230 fluorescence intensity (a.u.)
